Assay results taken from PMC7786100.
No constants are given. Whether binding was seen depends on the method and setting. Binding seen in cells or lysates may run through a third protein. Some binding calls cover weakened binding; strength is not graded here.

T1: Native Amel (amelogenin) from porcine enamel matrix protein extract (porcine (endogenous in developing molar enamel)) (UniProt P45561)
T1 sequence: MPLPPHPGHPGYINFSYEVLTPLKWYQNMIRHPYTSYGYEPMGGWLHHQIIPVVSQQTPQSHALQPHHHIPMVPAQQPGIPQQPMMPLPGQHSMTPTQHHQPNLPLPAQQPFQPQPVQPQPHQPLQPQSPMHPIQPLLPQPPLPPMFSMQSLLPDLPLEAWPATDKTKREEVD

T2: Native Ambn (ameloblastin) from porcine enamel matrix protein extract (porcine (endogenous in developing molar enamel)) (UniProt Q28989)
T2 sequence: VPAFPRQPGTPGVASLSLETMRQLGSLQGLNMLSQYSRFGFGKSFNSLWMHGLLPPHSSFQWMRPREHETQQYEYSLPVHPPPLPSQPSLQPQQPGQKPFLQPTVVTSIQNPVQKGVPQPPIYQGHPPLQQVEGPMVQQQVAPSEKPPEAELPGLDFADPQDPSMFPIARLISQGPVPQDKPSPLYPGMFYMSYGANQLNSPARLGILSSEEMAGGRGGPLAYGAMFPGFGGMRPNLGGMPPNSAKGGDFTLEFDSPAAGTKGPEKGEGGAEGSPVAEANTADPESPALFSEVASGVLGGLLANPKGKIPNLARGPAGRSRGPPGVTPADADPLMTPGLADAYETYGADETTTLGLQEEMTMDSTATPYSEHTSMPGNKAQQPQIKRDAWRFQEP


Columns and labels:
[1] = target: T1, Native Amel (amelogenin) from porcine enamel matrix protein extract (porcine (endogenous in developing molar enamel)); assay: co-IP; Pierce co-IP kit; anti-Amel antibody column; native porcine enamel matrix protein extract loaded as a mixture of all enamel matrix proteins; eluate read by Western blot and mass spectrometry
[2] = target: T2, Native Ambn (ameloblastin) from porcine enamel matrix protein extract (porcine (endogenous in developing molar enamel)); assay: co-IP; Pierce co-IP kit; anti-Ambn antibody column; native porcine enamel matrix protein extract loaded as a mixture of all enamel matrix proteins; eluate read by Western blot and mass spectrometry

Binder	binding [1]	binding [2]
Native Ambn (ameloblastin) from porcine enamel matrix protein extract (protein, UniProt Q28989 27-421) VPAFPRQPGTPGVASLSLETMRQLGSLQGLNMLSQYSRFGFGKSFNSLWMHGLLPPHSSFQWMRPREHETQQYEYSLPVHPPPLPSQPSLQPQQPGQKPFLQPTVVTSIQNPVQKGVPQPPIYQGHPPLQQVEGPMVQQQVAPSEKPPEAELPGLDFADPQDPSMFPIARLISQGPVPQDKPSPLYPGMFYMSYGANQLNSPARLGILSSEEMAGGRGGPLAYGAMFPGFGGMRPNLGGMPPNSAKGGDFTLEFDSPAAGTKGPEKGEGGAEGSPVAEANTADPESPALFSEVASGVLGGLLANPKGKIPNLARGPAGRSRGPPGVTPADADPLMTPGLADAYETYGADETTTLGLQEEMTMDSTATPYSEHTSMPGNKAQQPQIKRDAWRFQEP	binds	
Native Amel (amelogenin) from porcine enamel matrix protein extract (protein, UniProt P45561 17-189) MPLPPHPGHPGYINFSYEVLTPLKWYQNMIRHPYTSYGYEPMGGWLHHQIIPVVSQQTPQSHALQPHHHIPMVPAQQPGIPQQPMMPLPGQHSMTPTQHHQPNLPLPAQQPFQPQPVQPQPHQPLQPQSPMHPIQPLLPQPPLPPMFSMQSLLPDLPLEAWPATDKTKREEVD		binds
